Results reported in the supplement of paper PMC5770031.
This is one part of the list. This data set is noisy: repeats of one test often differ as much as different tests do.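 Flies heterozygous for the ATM8 allele over a balancer chromosome carrying normal ATM were mated with each other on treated food. Parents laid eggs for 5–6 days and the young then developed for about 12 days, so both parents and larvae ate the compound. The read-out is the share of all emerged adults that carry two ATM8 copies, compared with 2% DMSO control vials. The paper called compounds neutral at 10–20% such offspring, harmful below 10%, and helpful above 20%.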 Peptide text beside a SMILES is read from it. * marks the point of attachment. NHCH2CH2OH = OCCN*; For = O=C*

Each molecule was assayed on Drosophila melanogaster ATM8 (temperature-sensitive ATM allele) (assay: fraction of eclosed F1 progeny that are homozygous ATM8 (rescue of developmental lethality); higher = more rescue of ATM8 developmental lethality; extreme values may be limits of the assay). Details: compound concentration applied to food 0.2 mM; 21 °C.

Compound	fraction of eclosed F1 progeny that are homozygous ATM8
CC1(C)CCC[C@]2(C)[C@H]3CC(=O)O[C@]3(C)CC[C@@H]12	0.0667
COc1ncnc(NS(=O)(=O)c2ccc(N)cc2)c1OC	0.23
CC1(C)C(=O)C=CC2(C)C1C=CC1(C)C2CCC2(C)C(c3ccoc3)OC(=O)C3OC312 (stereo not given)	0.093
C#CCCCCCCCCCCCC(O)CC(O)COC(C)=O (stereo not given)	0.118
COc1ccc(C(=O)CC(=O)c2ccc(C(C)(C)C)cc2)cc1	0.196
Cc1ccc(C(C)C)c(O)c1C(=O)O	0.211
CC(=O)O[C@H]1C[C@@H](OC(C)=O)C(C)(C)C2C[C@@H](OC(C)=O)[C@]3(C)C(CC[C@@]4(C)[C@H](c5ccoc5)C(=O)[C@H]5O[C@]543)[C@]21C (stereo not given in full)	0.157
Nc1nc2c(ncn2COCCO)c(=O)[nH]1	0.0714
CC1(C)C(=O)[C@H]2C[C@]3(O)C4=CC(=O)O[C@@H](c5ccoc5)[C@@]4(C)CCC3[C@](C)(C2=O)[C@H]1CC(=O)O (stereo not given in full)	0.118
NCCSSCCN	0.108
COc1ccc2[nH]c([S@@+]([O-])Cc3ncc(C)c(OC)c3C)nc2c1	0.0455
CC(C)NCC(O)c1ccc(O)c(O)c1 (stereo not given)	0.104
O=c1cc(-c2ccccc2O)oc2cc(O)ccc12	0.129
C#C[C@]1(O)CC[C@H]2[C@@H]3CCc4cc(O)ccc4[C@H]3CC[C@@]21C	0.0857
Cc1occc(=O)c1O	0.128
CC1(C)CC23C(=O)CCC(O)C2(C)CCC13 (stereo not given)	0.0909
CCOc1cc(CC(=O)N[C@@H](CC(C)C)c2ccccc2N2CCCCC2)ccc1C(=O)O	0.25
COc1cc2c(cc1OC)C1(O)C(=O)c3ccc(O)c(C(=O)O)c3OC1CO2 (stereo not given)	0.093
C[C@@H]1CC[C@@]2(OC1)O[C@H]1[C@@H](O)[C@H]3[C@@H]4CC[C@H]5C[C@@H](O[C@@H]6O[C@H](CO)[C@H](O[C@@H]7O[C@H](CO)[C@@H](O)[C@H](O[C@@H]8OC[C@@H](O)[C@H](O)[C@H]8O)[C@H]7O[C@@H]7O[C@H](CO)[C@H](O)[C@H](O[C@@H]8O[C@H](CO)[C@@H](O)[C@H](O)[C@H]8O)[C@H]7O)[C@H](O)[C@H]6O)[C@H](O)C[C@]5(C)[C@H]4CC[C@]3(C)[C@H]1[C@@H]2C	0.154
CCC(C(N)=O)c1ccccc1 (stereo not given)	0.0952
O=NN(CCCl)C(=O)NCCCl	0.0444
CCOC(=O)c1ncn2c1CN(C)C(=O)c1cc(F)ccc1-2	0
COc1cc(/C=C/c2ccc(O)cc2)cc(OC)c1	0.0682
CC1=C(/C=C/C(C)=C/C=C/C(C)=C/C=C/C=C(C)/C=C/C=C(C)/C=C/C2=C(C)C(=O)CCC2(C)C)C(C)(C)CCC1=O [CANTHAXANTHIN (euglenanone)]	0.069
CC(C(=O)O)c1cccc(C(=O)c2ccccc2)c1 (stereo not given)	0.0909
Nc1nc(N)c2nc(CNc3ccc(C(=O)N[C@@H](CCC(=O)O)C(=O)O)cc3)cnc2n1	0.093
CC(C)c1c(O)ccc2c1CC[C@H]1C(C)(C)CCC[C@]21C	0.147
CCCCC(CC)COC(=O)C=Cc1ccc(OC)cc1 (stereo not given)	0.13

An excerpt of these results, in markdown.

| Compound | fraction of eclosed F1 progeny that are homozygous ATM8 |
| --- | --- |
| CC1(C)CCC[C@]2(C)[C@H]3CC(=O)O[C@]3(C)CC[C@@H]12 | 0.0667 |
| COc1ncnc(NS(=O)(=O)c2ccc(N)cc2)c1OC | 0.23 |
| CC1(C)C(=O)C=CC2(C)C1C=CC1(C)C2CCC2(C)C(c3ccoc3)OC(=O)C3OC312 (stereo not given) | 0.093 |
| C#CCCCCCCCCCCCC(O)CC(O)COC(C)=O (stereo not given) | 0.118 |
| Cc1ccc(C(C)C)c(O)c1C(=O)O | 0.211 |
| CC(=O)O[C@H]1C[C@@H](OC(C)=O)C(C)(C)C2C[C@@H](OC(C)=O)[C@]3(C)C(CC[C@@]4(C)[C@H](c5ccoc5)C(=O)[C@H]5O[C@]543)[C@]21C (stereo not given in full) | 0.157 |
| Nc1nc2c(ncn2COCCO)c(=O)[nH]1 | 0.0714 |
| CC1(C)C(=O)[C@H]2C[C@]3(O)C4=CC(=O)O[C@@H](c5ccoc5)[C@@]4(C)CCC3[C@](C)(C2=O)[C@H]1CC(=O)O (stereo not given in full) | 0.118 |
| NCCSSCCN | 0.108 |
| COc1ccc2[nH]c([S@@+]([O-])Cc3ncc(C)c(OC)c3C)nc2c1 | 0.0455 |
| C#C[C@]1(O)CC[C@H]2[C@@H]3CCc4cc(O)ccc4[C@H]3CC[C@@]21C | 0.0857 |
| CCOc1cc(CC(=O)N[C@@H](CC(C)C)c2ccccc2N2CCCCC2)ccc1C(=O)O | 0.25 |
| CCC(C(N)=O)c1ccccc1 (stereo not given) | 0.0952 |
| COc1cc(/C=C/c2ccc(O)cc2)cc(OC)c1 | 0.0682 |
| CC(C(=O)O)c1cccc(C(=O)c2ccccc2)c1 (stereo not given) | 0.0909 |
| Nc1nc(N)c2nc(CNc3ccc(C(=O)N[C@@H](CCC(=O)O)C(=O)O)cc3)cnc2n1 | 0.093 |
| CC(C)c1c(O)ccc2c1CC[C@H]1C(C)(C)CCC[C@]21C | 0.147 |

(continued)

Compound	fraction of eclosed F1 progeny that are homozygous ATM8
CCCC1O[C@@H]2C[C@H]3[C@@H]4CCC5=CC(=O)C=C[C@]5(C)[C@H]4[C@@H](O)C[C@]3(C)[C@]2(C(=O)CO)O1 (stereo not given in full)	0.0426
Cc1cc(O)ccc1Cl	0.162
O=C1CN(/N=C/c2ccc(-c3ccc([N+](=O)[O-])cc3)o2)C(=O)N1	0.0769
CC1(O)CCC(C(C)(C)O)CC1 (stereo not given)	0.0303
CCOC(=O)n1ccn(C)c1=S	0.264
COc1cc(O)c2c(c1)C(=O)c1cc(C)cc(O)c1C2=O	0.314
CC(C)CC(NC(=O)C(C)NC(=O)CNC(=O)C(NC=O)C(C)C)C(=O)NC(C)C(=O)NC(C(=O)NC(C(=O)NC(C(=O)NC(Cc1c[nH]c2ccccc12)C(=O)NC(CC(C)C)C(=O)NC(Cc1c[nH]c2ccccc12)C(=O)NC(CC(C)C)C(=O)NC(Cc1c[nH]c2ccccc12)C(=O)NC(CC(C)C)C(=O)NC(Cc1c[nH]c2ccccc12)C(=O)NCCO)C(C)C)C(C)C)C(C)C (stereo not given) [GRAMICIDIN (gramicidin A shown)] (For-VGALAVVVWLWLWLW-NHCH2CH2OH; configuration not given here)	0.184
CC1(C)S[C@@H]2[C@H](NC(=O)[C@H](C(=O)O)c3ccsc3)C(=O)N2[C@H]1C(=O)O	0.0625
C=C[C@H]1CN2CC[C@H]1C[C@H]2[C@H](OC(=O)OCC)c1ccnc2ccc(OC)cc12	0.197
C=C[C@](C)(O)CCC=C(C)C	0.232
CN[C@@H]1[C@@H](O)[C@@H](O[C@@H]2[C@@H](O)[C@H](O[C@H]3OC(CN)=CC[C@H]3N)[C@@H](N)C[C@H]2N)OC[C@]1(C)O	0.025
CC(C)(C)C(=O)C(Oc1ccc(Cl)cc1)n1ccnc1 (stereo not given)	0.14
Cc1c(C(=O)O)c(O)cc2c1C(=O)c1c(O)c([C@@H]3O[C@H](CO)[C@@H](O)[C@H](O)[C@H]3O)c(O)c(O)c1C2=O	0.135
CC(=O)Oc1c2c(c(CC=C(C)C)c3c1C(=O)C1=C[C@@H]4CC5C(C)(C)OC(C/C=C(\C)C(=O)O)(C4=O)[C@@]15O3)OC(C)(CCC=C(C)C)C=C2 (stereo not given in full)	0.4
CC(C)=CCC/C(C)=C/CC/C(C)=C/CO	0.0833
c1ccc2c(c1)CN1CCCC1=N2	0.125
O=C1CN(/N=C/c2ccc([N+](=O)[O-])o2)C(=O)N1	0.176
S=c1ccss1	0.143
Cc1ccccc1OCC(O)CO (stereo not given)	0.0286
C[C@H](N)[C@H](O)c1cccc(O)c1	0.0956
CC1(C)S[C@@H]2[C@H](NC(=O)C(C(=O)O)c3ccccc3)C(=O)N2[C@H]1C(=O)O (stereo not given in full)	0.0303
C=C[C@@]1(C)CC(=O)[C@]2(O)[C@@]3(C)[C@@H](O)CCC(C)(C)[C@@H]3[C@H](O)[C@H](OC(C)=O)[C@@]2(C)O1	0.123
CN(Cc1cnc2nc(N)nc(N)c2n1)c1ccc(C(=O)NC(CCC(=O)O)C(=O)O)cc1 (racemic)	0
CCN(CC)C(=S)SSC(=S)N(CC)CC	0.0217
C/C(=C(\CCOP(=O)(O)O)SC(=O)c1ccccc1)N(C=O)Cc1cnc(C)nc1N	0.167
Nc1ncn[nH]1	0.147
COc1ccc(CN2CCNCC2)c(OC)c1OC	0.25
